# The other results are listed elsewhere or left out. Further columns of the screen follow, without active or inactive calls. The list favours compounds with an active or inconclusive main result. Words in brackets tell the shape of the fitted curve; partial curves, single points and poor fits give uncertain potencies.
# Assay: qHTS Assay for Lipid Storage Modulators in Drosophila S3 Cells;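 on cell number change: cells counted by Cell Tracker Red CMTPX staining in the red channel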
# Conditions: BODIPY lipid droplet fluorescence, 18-24 h; for cell number change: measured here: cell count max response, cells fed with added oleic acid
# Procedure, shortened: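 Drosophila S3 cells loaded with oleic acid (400 uM, as added) and compounds at several concentrations; lipid droplets imaged by 488-nm laser-scanning cytometry, 500–530 nm intensity and object ratio to cell channel. Percent activity normalized to 20 uM Triacsin C.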
# [1] = measured here: cell number channel AC50, cells fed with added oleic acid
# [2] = measured here: lipid fluorescence (Fed channel) AC50, cells fed with added oleic acid
SMILES,cell number change [%],AC50 [1],AC50 [2]
O=C(Nc1ccc(OC(F)(F)F)cc1)C1CC(=O)N(Cc2ccco2)C1 (configuration not stated),-13.4,"0.00517 µM [falling, full curve, poor fit]","0.0058 µM [falling, full curve, poor fit]"
CCOc1ccccc1/C=C/C(=O)c1ccc(Cl)cc1,-1.81,,"4.11 µM [falling, single point]"
O=C(/C=C/c1ccco1)Oc1cc(Br)cc(/C=N/NC(=O)c2ccccc2O)c1,-15.9,,"16.4 µM [falling, single point]"
Nc1nc(-c2ccc3c(c2)CCCC3)cs1,-50.4,"18.4 µM [falling, partial curve]",
O=C1CCc2cc(S(=O)(=O)N3CCN(c4ccccc4)CC3)cc3c2N1CCC3,9,,"3.66 µM [rising, single point]"
O=C(NC(=O)c1cccc(OC(F)(F)C(F)F)c1)OC1CCS(=O)(=O)C1 (configuration not stated),,"0.58 µM [falling, single point]","0.58 µM [falling, single point]"
O=C(Nc1cccc(S(=O)(=O)NC2=NCCC2)c1)c1ccccc1OC(F)F,,,"29.1 µM [rising, single point]"
O=C(O)c1ccc2nc(-c3ccco3)c(-c3ccco3)nc2c1,11.5,"0.00461 µM [rising, full curve, poor fit]",
CC(C)(CN1CCN(c2ccccc2)CC1)NS(=O)(=O)c1ccccc1,-21.6,,
COC(=O)c1ccc(-c2nn(C)c(=O)c3ccccc23)cc1,,,"6.51 µM [rising, single point]"
CCC(C)C(NS(=O)(=O)c1ccc(C)cc1)C(=O)O (configuration not stated),36.3,"2.31 µM [rising, full curve]","2.31 µM [rising, full curve, poor fit]"
CNC(=S)NNC(=O)c1sccc1OCc1ccc(C)cc1,150,,
COc1ccc(C(=O)C2CCCN(C(=O)c3cc(C4CC4)[nH]n3)C2)c(C)c1 (configuration not stated),-10.1,"6.51 µM [falling, single point]",
Cc1noc(C)c1C(=O)OCC(=O)c1ccc[nH]1,8.66,"0.82 µM [rising, full curve]",
CCCCNc1c(-c2ccc(-c3cccc(Cl)c3)cc2)nc2ccccn12,,,"1.84 µM [falling, partial curve]"
CC(=O)c1ccc(Sc2nnnn2-c2ccccc2)c([N+](=O)[O-])c1,-15.4,,"29.1 µM [falling, single point]"
CC(=O)c1ccc(N2CCN(C(=O)c3ccc(C(=O)c4ccccc4)cc3)CC2)cc1,-23.1,,"6.51 µM [rising, single point]"
CCc1ccc(NC(=O)C2CCCN2C(=O)NC2CCCCC2)cc1 (configuration not stated),30.8,"6.51 µM [rising, partial curve, poor fit]","5.17 µM [rising, single point]"

SMILES,cell number change [%],AC50 [1],AC50 [2]
Cc1nc2ccccn2c1C(=O)Nc1ccc(Cl)cc1,8.75,,"0.291 µM [rising, full curve]"
NC(=O)CCS(=O)(=O)c1ccccc1,0.572,,
Cc1nc(NC(=O)COC(=O)c2cccs2)c(Cl)cc1Cl,75,"29.1 µM [rising, partial curve, poor fit]",
COCCNc1nc(SCc2ccccc2)nc2sc3c(c12)CCC3,-5.2,,"29.1 µM [falling, single point]"
CCc1ccccc1N(C(=O)CNC(=O)c1ccco1)C(C(=O)NC1CCCC1)c1cccnc1 (configuration not stated),-8.97,"3.26 µM [rising, partial curve]","0.116 µM [falling, full curve, poor fit]"
COC(=O)CSc1nnc(-c2ccncc2)n1N,-44.4,"29.1 µM [falling, single point]",
CN(C)c1ccc(C(=O)c2ccccc2)cc1,63.9,"13 µM [rising, partial curve, poor fit]","6.51 µM [rising, single point]"
Cc1occc1-c1nnc(SCC(=O)Nc2nccs2)n1CCc1ccccc1,0.397,,"1.64 µM [rising, partial curve]"
CC(C)(C)c1ccc(S(=O)(=O)NCc2ccc(C(=O)N3CCOCC3)cc2)cc1,7.82,,"13 µM [falling, partial curve]"
COc1ccc(/C=C(/NC(=O)c2ccccc2)C(=O)N2CCC(C)CC2)cc1,29.5,,
O=C(NC12CC3CC(CC(C3)C1)C2)c1ccc(-c2ccc(Cl)cc2)o1,,"6.51 µM [rising, partial curve, poor fit]","6.51 µM [rising, partial curve, poor fit]"
Nc1ncnc2nc(N3CCN(C(=O)c4ccccc4)CC3)[nH]c12,2.21,,"0.184 µM [rising, full curve, poor fit]"
CN1CC(=O)NC1=NC(=O)c1ccc(Cl)c(S(=O)(=O)N2CCCCCC2)c1,-11.5,,"25.9 µM [falling, partial curve, poor fit]"
Cc1ccc(C(=O)CC(C(=O)O)n2cnc([N+](=O)[O-])n2)cc1 (configuration not stated),11.6,,"2.31 µM [rising, full curve, poor fit]"
COc1ccc(OC(C)C(=O)N(C)Cc2nc(-c3ccccc3)no2)cc1 (configuration not stated),-31.6,"13 µM [falling, single point]","6.31 µM [falling, partial curve, poor fit]"
CN(c1ccccc1C(=O)N1CCCC1)S(C)(=O)=O,-116,"25.9 µM [falling, partial curve]","23.1 µM [falling, partial curve]"
CCCOc1ccc(NC(=O)CC2C(=O)N(Cc3ccccc3)C(=S)N2Cc2cccs2)cc1 (configuration not stated),,"3.26 µM [rising, partial curve, poor fit]","1.84 µM [rising, partial curve, poor fit]"
N#C/C(=C\c1ccc(-c2ccccc2Cl)o1)C(=O)Nc1nc2ccccc2s1,19.2,,"0.58 µM [rising, partial curve]"

# Retrieved by compound from the entries so far (2):
SMILES,cell number change [%],AC50 [1],AC50 [2]
CCCOc1ccc(NC(=O)CC2C(=O)N(Cc3ccccc3)C(=S)N2Cc2cccs2)cc1 (configuration not stated),,"3.26 µM [rising, partial curve, poor fit]","1.84 µM [rising, partial curve, poor fit]"
O=C1CCc2cc(S(=O)(=O)N3CCN(c4ccccc4)CC3)cc3c2N1CCC3,9,,"3.66 µM [rising, single point]"
